Data taken from article PMC12254266, “Multicolored sequential resonance energy transfer for detection of simultaneous ligand binding at G protein-coupled receptors” (Nature Communications, 2025).
Where “and” joins values, the source holds several entries; their conditions need not be identical. Identical values can stand only once. Further values from the same series stand in other lists.

Amino acid sequences for entries named in this document (tags omitted).
UniProt O14842, whole entry: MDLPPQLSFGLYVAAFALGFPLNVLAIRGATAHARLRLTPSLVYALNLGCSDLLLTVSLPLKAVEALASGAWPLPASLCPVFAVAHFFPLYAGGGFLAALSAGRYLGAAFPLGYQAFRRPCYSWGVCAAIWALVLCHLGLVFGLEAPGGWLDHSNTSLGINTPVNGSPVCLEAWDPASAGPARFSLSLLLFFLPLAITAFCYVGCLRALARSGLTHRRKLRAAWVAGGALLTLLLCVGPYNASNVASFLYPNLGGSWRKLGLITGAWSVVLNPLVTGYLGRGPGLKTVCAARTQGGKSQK

Tests used:
FFA1-Nluc [1] = molecular target: T1, FFA1-Nluc (Homo sapiens, UniProt O14842); test: DISCo-BRET (endpoint, spectra scan, kinetics) with TUG-2591 and TUG-2597 at C terminal Nluc tagged FFA1; format: binding; design: expressed in transfected cells; conditions: Figure 4Biii, single replicate values (technical duplicate)
Protocol: Nluc-FFA1 or FFA1-Nluc Flp-In T-REx 293 cells were plated at 50,000 cells per well in poly-D-lysine coated white 96-well plates. Cells were cultured for 24 h in the plate before medium was replaced with medium containing 100 ng/mL of doxycycline to induce receptor expression. After culturing for a further 24 h, culture medium was removed, cells washed with HBSS and incubated in HBSS for 30 min. For all DISCo-BRET formats Nano-Glo substrate was then added at a 1:800 final dilution and cells incubated for 10 min. Following substrate addition experimental set up different among the three formats: endpoint, spectra scan, and kinetics.
For endpoint experiments all fluorescent and unlabelled ligands were added to the cells and incubated for 5 min at 37 °C. Luminescent emission was then measured using a CLARIOstar microplate reader with monochromator set at 450–60 nm (Nluc), 540−60 nm (NBD) and 690–100 nm (SulfoCy5). BRET ratios were then calculated as either SulfoCy5 emission divided by NBD emission, SulfoCy5 emission divided by Nluc emission, or NBD emission divided by Nluc emission.
For spectra scan experiments all indicated fluorescent and unlabelled ligands were added to the cells and cells incubated for 5 min at 37 °C. Luminescence emissions were then measured from each well of the plate from 440 nm – 740 nm with a 5 nm resolution using a CLARIOstar microplate. […]
In kinetic DISCo-BRET experiments plates were placed directly in a CLARIOstar plate reader set to 25 °C 10 min after Nano-Glo substrate addition. […] After 5 min of background measurements, the plate reader was paused for the first indicated fluorescent ligand(s) addition, before immediately returning the plate to the reader to continue luminescence readings. After 5 min, the reader was again paused to add the second fluorescent ligand (association assays) or competing ligand(s) (dissociation assays), before immediately continuing the measurements for the indicated time. […]

FFA1-Nluc [2] = molecular target: T1, FFA1-Nluc; test: Ca2+ mobilisation antagonism of FFA1 agonists (TUG-905, T360) in Flp-In T-REx 293 cells expressing FFA1-Nluc; format: cell-based; design: expressed in transfected cells
Protocol: Nluc-FFA1, FFA1-Nluc or untagged FFA1 Flp-In T-REx 293 cells were plated at 50,000 cells per well in poly-D-lysine coated black clear bottom 96-well plates. Cells were then cultured for 24 h until reaching confluency before culture medium was replaced with medium containing 100 ng/mL of doxycycline to induce receptor expression. Cells were cultured for a further 24 h before the assay. On the day of the assay culture medium was removed and replaced with medium containing 3 μM Fura2-AM Ca^2+ dye. […] Fura2 fluorescent emission at 520 nm following excitation with each of 340 and 380 nm was measured in regular intervals both before and after adding test compounds for a total of 90 s per well. Calcium responses were determined by taking the peak 340/380 ratio after first subtracting the ratios obtained prior to addition of test compound. […]
Ca2+ mobilization responses were measured in
Flp-In T-REx 293 cells expressing FFA1-Nluc. Ca2+ responses to increasing concentrations
pre-treated with 10 μM PPTQ. The mode of antagonism for PPTQ was assessed by
N=3 (A-D, F, H) or N=4 (E, G) independent experiments. S ource data are provided as a […]

| Structure (SMILES) | Specific BRET (540/450), % of control (FFA1-Nluc [1]; log[Ligand] -6.5) | Ca2% Response (%) (FFA1-Nluc [2]; log[T360] -4.5, 10 μΜ (antagonist not given), Sup Figure 6F) | Ca2% Response (%) (FFA1-Nluc [2]; log[T360] -5, Veh (no antagonist), technical duplicates, Sup Fig 6H) | Ca2% Response (%) (FFA1-Nluc [2]; log[T360] -5, 10 μΜ (antagonist not given), Sup Figure 6F) | Ca2% Response (%) (FFA1-Nluc [2]; log[T360] -5, Veh (no antagonist), Sup Figure 6F) | Ca2% Response (%) (FFA1-Nluc [2]; log[T360] -5, column head 1.0 μM (antagonist not given), Sup Figure 6F) | Ca2% Response (%) (FFA1-Nluc [2]; log[T360] -5.5, 10 μΜ (antagonist not given), Sup Figure 6F) | Ca2% Response (%) (FFA1-Nluc [2]; log[T360] -5.5, Veh (no antagonist), Sup Figure 6F) | Ca2% Response (%) (FFA1-Nluc [2]; log[T360] -5.5, column head 1.0 μM (antagonist not given), Sup Figure 6F) | Ca2% Response (%) (FFA1-Nluc [2]; log[T360] -6, Veh (no antagonist), Sup Fig 6H) | Ca2% Response (%) (FFA1-Nluc [2]; log[T360] -7, Veh (no antagonist), Sup Fig 6H) | Ca2% Response (%) (FFA1-Nluc [2]; log[T360] -8, 10 μΜ (antagonist not given), Sup Figure 6F) | Ca2% Response (%) (FFA1-Nluc [2]; log[T360] -8, column head 1.0 μM (antagonist not given), Sup Figure 6F) | Ca2% Response (%) (FFA1-Nluc [2]; log[T360] -9, Veh (no antagonist), Sup Fig 6H) | Ca2% Response (%) (FFA1-Nluc [2]; log[T360] -9, 10 μΜ (antagonist not given), Sup Figure 6F) | Ca2% Response (%) (FFA1-Nluc [2]; log[T360] -9, Veh (no antagonist), Sup Figure 6F) | Ca2% Response (%) (FFA1-Nluc [2]; log[T360] -9, column head 1.0 μM (antagonist not given), Sup Figure 6F) | Ca2% Response (%) (FFA1-Nluc [2]; log[T360] -10, Veh (no antagonist), Sup Fig 6H) | Ca2% Response (%) (FFA1-Nluc [2]; log[T360] -11, Veh (no antagonist), Sup Fig 6H) | Specific BRET (540/450), % of control (FFA1-Nluc [1]; log[Ligand] -6) |
| --- | --- | --- | --- | --- | --- | --- | --- | --- | --- | --- | --- | --- | --- | --- | --- | --- | --- | --- | --- | --- |
| CCCN1C(=O)c2ccccc2[C@@H](C(=O)O)[C@@H]1c1ccc(OCc2cccc(-c3ccc(OCCCS(C)(=O)=O)cc3C)c2)cc1 (racemic) [TUG-2745] | 62.50 % of control and 144.23 % of control |  |  |  |  |  |  |  |  |  |  |  |  |  |  |  |  |  |  |  |
| COc1ccc(CCCC(C)(C)C)c(N2CCC(COc3cccc(C(CC(=O)O)C4CC4)c3)CC2)c1.O=C(O)C(F)(F)F (stereo not drawn) [T360] |  | 77.01% and 82.20% and 65.62% and 70.70% and 62.82% and 52.19% | 103.51% and 96.49% and 97.50% and 102.50% and 95.14% and 104.86% | 84.06% and 85.08% and 71.51% and 64.23% and 77.69% and 81.96% | 97.67% and 102.33% and 98.42% and 101.58% and 93.55% and 85.15% | 87.63% and 91.69% and 94.92% and 86.67% and 88.77% and 95.10% | 69.29% and 92.54% and 57.45% and 54.28% and 80.53% and 74.12% | 101.29% and 117.31% and 109.31% and 110.20% and 98.46% and 101.54% | 86.89% and 87.93% and 92.03% and 101.29% and 78.90% and 84.60% | 114.73% and 98.50% and 105.51% and 98.82% and 101.50% and 99.68% | 36.89% and 42.81% and 63.72% and 49.92% and 39.85% and 39.51% | 5.09% and 7.29% and 5.37% | 3.50% and -1.85% | 0.21% and -0.34% and -1.74% and 3.19% and -0.23% and -1.29% | -0.0431% and 0.0431% | -1.37% and 2.64% and 1.34% and 0.99% and 0.42% and -0.20% | 3.15% and -1.68% and 1.07% and 2.54% and -0.69% and -0.28% | -1.53% and 0.93% and -1.85% and 0.26% and -0.21% and -0.96% | -0.48% and -0.96% and -1.50% and -0.87% and 3.85% and 0.21% |  |
| CCCN1C(=O)c2ccccc2[C@@H](C(=O)O)[C@@H]1c1ccc(OCc2cccc(C(F)(F)F)c2)cc1 [TUG-2743] | 116.97 % of control and 106.08 % of control and 36.73 % of control and 15.16 % of control and 63.36 % of control and 57.97 % of control and 61.90 % of control and 68.58 % of control |  |  |  |  |  |  |  |  |  |  |  |  |  |  |  |  |  |  | 50.66 % of control |
